Results of single-concentration screens

By UniProt entry, the sequences of proteins in these tests, tags left out. Residues count along the entry.
UniProt P9WNZ1, whole entry: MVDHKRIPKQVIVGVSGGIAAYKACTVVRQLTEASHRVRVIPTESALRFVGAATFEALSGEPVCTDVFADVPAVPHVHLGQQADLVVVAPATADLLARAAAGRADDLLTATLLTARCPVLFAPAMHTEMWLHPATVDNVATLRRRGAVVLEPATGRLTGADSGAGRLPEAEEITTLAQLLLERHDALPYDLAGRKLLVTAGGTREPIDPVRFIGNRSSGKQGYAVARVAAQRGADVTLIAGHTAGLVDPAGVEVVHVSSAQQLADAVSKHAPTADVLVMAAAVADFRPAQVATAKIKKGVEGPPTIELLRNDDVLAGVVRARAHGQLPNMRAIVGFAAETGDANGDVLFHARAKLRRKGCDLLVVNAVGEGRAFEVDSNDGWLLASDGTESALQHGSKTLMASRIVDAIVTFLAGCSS
UniProt I6X8D2, whole entry: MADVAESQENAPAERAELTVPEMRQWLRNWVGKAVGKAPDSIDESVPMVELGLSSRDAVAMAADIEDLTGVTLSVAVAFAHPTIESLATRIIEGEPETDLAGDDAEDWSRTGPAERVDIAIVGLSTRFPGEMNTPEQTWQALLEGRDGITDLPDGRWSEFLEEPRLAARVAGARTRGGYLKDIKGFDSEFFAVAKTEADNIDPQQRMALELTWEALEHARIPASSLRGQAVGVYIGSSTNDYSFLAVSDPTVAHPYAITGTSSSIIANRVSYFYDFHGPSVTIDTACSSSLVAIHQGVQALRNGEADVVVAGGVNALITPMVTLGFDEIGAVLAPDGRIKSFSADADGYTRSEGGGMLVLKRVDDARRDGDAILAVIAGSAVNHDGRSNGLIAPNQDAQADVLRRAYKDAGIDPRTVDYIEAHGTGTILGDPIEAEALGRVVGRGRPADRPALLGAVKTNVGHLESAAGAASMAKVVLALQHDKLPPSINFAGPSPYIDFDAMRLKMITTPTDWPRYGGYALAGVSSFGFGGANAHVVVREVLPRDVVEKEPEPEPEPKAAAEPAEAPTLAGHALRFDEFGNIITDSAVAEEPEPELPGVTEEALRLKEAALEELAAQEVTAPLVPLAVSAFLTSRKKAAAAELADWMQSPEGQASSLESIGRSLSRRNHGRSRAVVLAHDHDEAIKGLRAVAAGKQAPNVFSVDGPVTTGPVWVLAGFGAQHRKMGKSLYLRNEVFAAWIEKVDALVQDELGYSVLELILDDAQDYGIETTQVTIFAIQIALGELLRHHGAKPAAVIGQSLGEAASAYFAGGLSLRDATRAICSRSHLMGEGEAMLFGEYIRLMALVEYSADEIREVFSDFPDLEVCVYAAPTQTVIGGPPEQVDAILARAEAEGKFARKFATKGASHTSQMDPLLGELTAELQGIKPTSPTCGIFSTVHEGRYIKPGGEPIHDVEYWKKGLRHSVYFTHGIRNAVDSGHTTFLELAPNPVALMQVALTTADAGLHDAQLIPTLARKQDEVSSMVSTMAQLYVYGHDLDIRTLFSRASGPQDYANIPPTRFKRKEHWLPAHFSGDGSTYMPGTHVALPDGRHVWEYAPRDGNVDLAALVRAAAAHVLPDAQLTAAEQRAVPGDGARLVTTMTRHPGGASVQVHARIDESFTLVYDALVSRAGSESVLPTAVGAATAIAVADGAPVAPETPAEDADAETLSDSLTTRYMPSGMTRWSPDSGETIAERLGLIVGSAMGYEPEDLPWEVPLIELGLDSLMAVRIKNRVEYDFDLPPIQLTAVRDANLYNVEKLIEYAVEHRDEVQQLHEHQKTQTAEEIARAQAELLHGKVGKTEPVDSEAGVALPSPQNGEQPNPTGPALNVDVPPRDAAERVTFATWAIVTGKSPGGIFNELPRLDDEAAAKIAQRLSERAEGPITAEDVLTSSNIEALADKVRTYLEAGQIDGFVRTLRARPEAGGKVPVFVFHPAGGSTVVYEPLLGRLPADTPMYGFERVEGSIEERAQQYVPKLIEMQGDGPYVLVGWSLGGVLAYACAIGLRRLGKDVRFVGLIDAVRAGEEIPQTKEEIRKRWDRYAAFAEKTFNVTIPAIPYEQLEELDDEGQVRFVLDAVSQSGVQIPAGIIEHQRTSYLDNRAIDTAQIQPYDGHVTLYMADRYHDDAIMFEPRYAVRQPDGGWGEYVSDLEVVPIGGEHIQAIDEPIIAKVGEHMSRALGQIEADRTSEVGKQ
UniProt P9WPC5, whole entry: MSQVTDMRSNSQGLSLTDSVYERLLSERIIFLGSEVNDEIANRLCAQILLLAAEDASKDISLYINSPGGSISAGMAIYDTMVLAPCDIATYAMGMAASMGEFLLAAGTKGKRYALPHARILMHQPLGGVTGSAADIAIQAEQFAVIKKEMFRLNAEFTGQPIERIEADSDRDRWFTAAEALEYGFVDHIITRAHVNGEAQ
UniProt P9WPC3, whole entry partner: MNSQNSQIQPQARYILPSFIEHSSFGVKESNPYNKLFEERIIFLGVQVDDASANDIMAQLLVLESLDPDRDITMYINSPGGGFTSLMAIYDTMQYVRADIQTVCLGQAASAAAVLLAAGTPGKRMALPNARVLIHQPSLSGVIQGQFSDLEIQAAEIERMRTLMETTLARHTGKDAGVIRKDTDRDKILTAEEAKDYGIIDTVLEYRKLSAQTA
UniProt Q4DA54, 1-478: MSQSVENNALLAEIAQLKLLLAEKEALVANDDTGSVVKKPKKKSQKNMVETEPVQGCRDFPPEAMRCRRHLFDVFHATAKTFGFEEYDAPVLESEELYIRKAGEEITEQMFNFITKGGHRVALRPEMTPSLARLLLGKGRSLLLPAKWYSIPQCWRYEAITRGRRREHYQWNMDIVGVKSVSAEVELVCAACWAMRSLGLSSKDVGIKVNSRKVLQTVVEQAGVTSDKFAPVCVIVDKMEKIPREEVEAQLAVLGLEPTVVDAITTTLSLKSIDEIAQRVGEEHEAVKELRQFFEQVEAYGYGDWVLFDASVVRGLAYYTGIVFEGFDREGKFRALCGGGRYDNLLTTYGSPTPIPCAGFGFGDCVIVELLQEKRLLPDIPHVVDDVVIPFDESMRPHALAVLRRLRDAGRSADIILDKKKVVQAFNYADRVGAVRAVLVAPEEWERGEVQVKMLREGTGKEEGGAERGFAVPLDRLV

Data taken from ChEMBL document CHEMBL3988442, “University of Dundee, Small-Polar-MMV Screening Library” (2021).

CoaBC: 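Enzyme assay of CoaBC with a phosphate dye (Biomol Green) read at 650 nm. Target: Coenzyme A biosynthesis protein CoaBC, Mycobacterium tuberculosis (UniProt P9WNZ1). Concentration: 30 µM. Direction is inferred from only a few compounds that gave an IC50; most scored high, so higher reads as stronger inhibition. Most strong results did not repeat in a second test. Of about 67,000 compounds tested this way, about 40 (0.06%) reached 50% or more in at least one test.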
Leishmania in macrophages: 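Cell assay of Leishmania donovani living inside macrophages; the read-out is not stated. Tested at 30 µM. Higher reads as stronger inhibition (inferred: compounds with an IC50 in retests scored well above the rest). Size under these conditions: about 69,000 compounds, about 1,000 of them at 50% or above in at least one test.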
Pks13 thioesterase: 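Enzyme assay of the thioesterase domain of polyketide synthase 13; the read-out is not stated. Target: Polyketide synthase Pks13, Mycobacterium tuberculosis (UniProt I6X8D2). Concentration: 30 µM. Higher reads as stronger inhibition (inferred from which compounds were picked for retests). Size under these conditions: about 67,000 compounds, about 300 of them at 50% or above in at least one test.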
ClpP1P2: 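ClpP1P2, Mycobacterium tuberculosis (UniProt P9WPC5 and UniProt P9WPC3). Protease assay of ClpP1P2, read by the AMC dye that it sets free. Compounds at 50 µM. Higher reads as stronger inhibition, judged from the few compounds that gave an IC50. Most other retested compounds had strongly negative values. About 69,000 compounds were tested under these conditions; 0.015% (about 10) showed 50% or more at least once.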
TcHisRS: 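Enzyme assay of histidyl-tRNA synthetase; the read-out is not stated. Target: Histidine-tRNA ligase, Trypanosoma cruzi CL Brener (UniProt Q4DA54). Tested at 30 µM. Higher reads as stronger inhibition (inferred: compounds with an IC50 in retests scored well above the rest). Of about 69,000 compounds tested this way, about 31 (0.045%) reached 50% or more in at least one test.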

Values are the deposited “Percent Effect”, in %.
How 0% and 100% were set is not recorded. Most values in the screen are low, and negative values occur.
This is an unselected part of the compounds tested.
Two or more numbers in one place are separate tests of the same structure; such repeats can differ widely.
A dash means the value is not listed here; it may have been measured.

compound,CoaBC,Leishmania in macrophages,Pks13 thioesterase,ClpP1P2,TcHisRS
COc1cccc(N2CCN(C(C(=O)O)c3ccc(OC)nc3)CC2)c1 (centres unmarked),-3.727%,17.84%,-7.239%,-4.377%,4.615%
CC(C)C1CN(C(=O)c2ccncc2)CCS1 (centres unmarked),-5.481%,17.35%,-18.59%,-5.337%,4.167%
CCCN1CCC(NC(=O)c2csc(C)c2-c2ccccc2)CC1,-27.1%,11.13%,-27.63%,-12.66%,0%
Cc1csc([C@@H]2C[C@@H]3CCN(C(=O)c4ccnnc4)C[C@H]3O2)n1,3.929%,-,-2.133%,-9.661%,2.174%
Cc1cc(C(=O)N2CCOC(c3nc(C)n[nH]3)C2)[nH]n1 (centres unmarked),-,-10.54%,3.654%,0.8807%,10.39%
Cc1nc(COCc2cnc3n2CCN(C)C3C)cs1.O=C(O)C(F)(F)F (centres unmarked),-,7.449%,-,-,-
Cc1ccc(N2CCC3(CC2)COCCN(c2nccs2)C3)nn1.O=C(O)C(F)(F)F.O=C(O)C(F)(F)F,-,22.72%,-,-,-
CC(C)N1CCOC(CC(=O)N2CCCN(Cc3cccs3)CC2)C1 (centres unmarked),1.235%,9.274%,-9.623%,-0.04179%,3.483%
Cc1ccc(C(=O)NCCNCC2CNc3ccnn3C2)cc1 (centres unmarked),-19.87%,29.03%,-3.802%,-4.301%,9.852%
Cc1noc(C2CCC3(CCN(C(=O)c4cnn(C)c4)CC3)O2)n1 (centres unmarked),10.12%,8.229%,2.87%,-5.782%,0.9346%
CN1CCC(c2cccc(Cc3ccc(C(F)(F)F)cc3)n2)CC1,3.39%,-3.298% & 23.77%,1.894%,1.06%,3.333%
[H][C@@]12CCN(C(=O)c3sccc3NC(C)=O)C[C@@]([H])(CC1)N2C,-,35.89%,-,-,-
Cc1cc(C)n(CC2CCCN2CCc2ccccn2)n1 (centres unmarked),6.905%,20.53%,-12.28%,-22.89%,5.294%
Cc1noc(C)c1CN1C[C@@H](C(=O)O)[C@H](c2ccccn2)C1,4.72%,16.18%,-5.545%,-5.798%,-1.538%
COc1cccc(Cn2c(C3CCNCC3)cc3cccnc32)c1,2.466%,-,21.77%,-7.894%,6.061%
NC(=O)C1CCN(CC(=O)NCCn2cc(Cl)cn2)CC1,4%,-14.28%,6.659%,-7.883%,-1.149%
Cc1nc(C2CN(C)CCO2)cc(N2CCSCC2)n1 (centres unmarked),11.28%,7.294%,-18.47%,-9.553%,2.247%
Cc1ccc(N2CCCC3(CCN(C(=O)NC4CCCC4)C3)C2)nn1 (centres unmarked),6.897%,5.042%,-17.09%,-5.624%,5.155%
O=C(Cc1csc(-c2ccccc2Cl)n1)NCc1cccc(C(=O)O)c1,-0.8505%,22.93%,-7.176%,0.5533%,12.87%
O=C(NC1CC1)c1ccn(COc2c(Cl)cccc2Cl)n1,1.531%,26.41%,-17.18%,-15.43%,4.911%
O=C(C1CCCCC1)N1C[C@@H]2CCN(c3cnccn3)C[C@@H]2C1,6.118%,-,-19.73%,8.329%,7.212%
CN(Cc1cn2c(n1)CN(c1ncc(F)cn1)CC2)Cc1ccco1,3.368%,-,-7.74%,10.71%,10.38%
[H][C@@]12CN(Cc3cccc(O)c3)C[C@]1([H])N(CCCN1CCOCC1)C(=O)O2,-,8.802%,-,-,-
CC1(C(N)=O)CN(CC2CCOCC2)CCO1 (centres unmarked),3.699%,-24.01%,-,0.1884%,5.303%
COCc1nc(NC(C)c2c(C)n[nH]c2C)c2cnn(C)c2n1 (centres unmarked),3.24%,13.39%,-33.34%,-7.269%,7.143%
COc1ncccc1CN1C[C@@H]2COC[C@]2(CNS(C)(=O)=O)C1,8.271%,-,1.011%,-7.938%,9.756%
O=C(NCc1nncn1C1CC1)c1cccnc1Oc1ccccc1,1.401%,6.573%,-10.49%,2.673%,3.867%
O=C(CCc1ccccn1)N1CCc2cc(Cl)cc(Cl)c2C1,-1.818%,12.17%,-1.867%,13.58%,4.184%
[H][C@@]12CCC(=O)N(CCCSC)[C@]1([H])CCN(Cc1ncc[nH]1)C2,-,-6.94%,-,-,-
CCOC(C)c1nc(Cn2cc(C)cn2)cs1 (centres unmarked),3.509%,-22.21%,-14.78%,-3.46%,1.961%
CN(C)[C@@H]1CN(Cc2cccnc2)C[C@H]1c1cn(C)c2ccccc12.Cl,-,-7.204%,-,-,-
O=C(Nc1cccnc1-n1cc(Cl)cn1)C1CC1,0.2525%,12.36%,-8.481%,-6.424%,-0.5848%
O=C(C1CCOCC1)N1CCc2ncc(CN3CCCC3)n2CC1,2%,-,-13.02%,2.008%,12.75%
Cc1cc(C(=O)N2CCC(Nc3cccnn3)CC2)no1,-1.474%,-52.19%,4.126%,-11.26%,4.167%
CN(C)CC1(O)CCCN(C(=O)c2ccccc2-n2cncn2)C1 (centres unmarked),-3.776%,6.547%,-18.6%,1.14%,2.976%
CC(=O)N1CCC2(CC1)c1ncc(-c3cccnc3)n1CCN2C,3.951%,34.97%,-9.295%,-3.227%,9.524%
CCS(=O)(=O)NC[C@]12COC[C@H]1CN(Cc1cc(C)on1)C2,3.599%,-,-29.88%,1.361%,0.5525%
Cc1ccc(C(CNCc2c[nH]nc2C)N(C)C)cc1 (centres unmarked),-12.21%,-,-13.04%,0.9457%,0.5236%
Cn1c(CC(=O)O)c(Sc2ccccc2)c2ccccc21,-18.16%,-12.06%,27.45%,18%,-13.4%
Cc1nccn1-c1ccc(CNS(=O)(=O)N2CCCCC2C)cn1 (centres unmarked),1.442%,2.396%,-10.02%,-4.178%,7.595%
Cc1ccc(C(=O)Nc2cccc3c2C(=O)NC3)c(C)n1,4.577%,42.29%,-,0.2811%,8.287%
Cc1ccc(N2CCCC(NCCCS(C)(=O)=O)C2)nn1 (centres unmarked),0%,8.89%,-21.49%,4.805%,10.64%
CCn1cc(NC(=O)c2cccc(CN3C[C@@H](C)O[C@@H](C)C3)c2)nn1,-1.597%,28.43%,4.37%,-2.735%,3.571%

Some entries from above, unchanged:

| compound | CoaBC | Leishmania in macrophages | Pks13 thioesterase | ClpP1P2 | TcHisRS |
|---|---|---|---|---|---|
| `CCn1cc(NC(=O)c2cccc(CN3C[C@@H](C)O[C@@H](C)C3)c2)nn1` | -1.597% | 28.43% | 4.37% | -2.735% | 3.571% |
| `Cc1nc(C2CN(C)CCO2)cc(N2CCSCC2)n1` (centres unmarked) | 11.28% | 7.294% | -18.47% | -9.553% | 2.247% |
| `[H][C@@]12CCN(C(=O)c3sccc3NC(C)=O)C[C@@]([H])(CC1)N2C` | - | 35.89% | - | - | - |